In PubChem BioAssay AID493014 (National Center for Advancing Translational Sciences (NCATS), 2011):
Out of some 340,000 compounds screened, about 170 (0.05%) were called active. The inconclusive results got no clear call from the source; some entries with a clear call stand among them for comparison. Calls follow the shape of the dose curve; as a rule, active = well fitted inhibition curve with a large enough effect in the signal ratio, with a control signal flat (not every such curve was filed as active); inconclusive = small, poorly fitted or top-dose-only effect, or effect the other way, or a change in a side signal; inactive = flat fitted curve, though single readings scatter; the % refers to the signal ratio. Where the call is inconclusive, the potency comes from a doubtful curve fit.

Assay: qHTS Assay to Find Inhibitors of Chronic Active B-Cell Receptor Signaling;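 as to activity change, negative = inhibition: plate controls were basal doxycycline-induced cells for no effect and cells given 10 µM MG132 for full effect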
Conditions: ABC-DLBCL IkBa-CBG/CBR reporter, luminescence ratio (green luciferase fused to IkBa over red control in TMD8 lymphoma cells), 4 h; activity change, negative = inhibition: at 46.1 µM (top of the series)
Procedure, shortened: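 Compounds up to 46 uM were incubated four hours with TMD8 cells whose green CBG68 luciferase is fused to IkappaBalpha; red CBR luminescence normalised the signal, and concentration-effect curves were fitted to fusion, red and ratio data.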
Potency is read from the fitted curve at half-maximal effect.

| SMILES | activity change, negative = inhibition | Potency |
| --- | --- | --- |
| COc1cccc(C(=O)N2CCC(CCC(=O)Nc3cccc(C)c3)CC2)c1 | inconclusive: -14.2% |  |
| Cc1ccccc1C(=O)N/N=C/c1ccsc1C | inconclusive: -17.7% |  |
| CC(C)C[C@@H](COc1ccccc1)N1CCN(Cc2ccccc2)CCC1=O | inconclusive: 4.55% |  |
| CCN(CC)S(=O)(=O)c1cccc(C(=O)NC2CCCCC2)c1 | inactive |  |
| Cc1ccc(N(C(=O)Cn2nnc(-c3ccc(F)cc3)n2)C(C(=O)NC(C)(C)C)c2ccncc2)cc1 (stereo not drawn) | inactive |  |
| CCc1nc2ccccc2c(C(=O)OCC(=O)NC(=O)c2cccn2C)c1C | inconclusive: 6.21% |  |
| Cc1cccc(NCc2nc3ccccc3n2Cc2ccccc2)c1 | inactive |  |
| CC(=O)N1c2ccc(C)cc2C(c2ccccc2)CC1C (stereo not drawn) | inconclusive: -13.7% |  |
| CCOC(=O)N1CCN(/C=C(\C#N)c2nc3ccccc3s2)CC1 | inconclusive: -11.3% |  |
| CCOC(=O)c1c(CN(C)C)oc2cc(CN(C)C)c(O)c(CSc3ccccc3)c12 | inconclusive: -18.2% |  |
| Cc1nc2ccc(NC(=S)NCc3ccccc3)cc2nc1C | inconclusive: -0.553% |  |
| COc1ccc(C(=O)NC2=NCCS2)c(OC)c1 |  | inconclusive: 35.5 µM [falling, single point] |
| COc1ccc(S(=O)(=O)Oc2ccc3ccccc3c2)cc1 | inconclusive: 3.45% |  |
| COc1ccc2cc(C(=O)C3CCCN(Cc4cnc(C)s4)C3)ccc2c1 (stereo not drawn) |  | inconclusive: 11.2 µM [falling, single point] |
| O=S(=O)(Nc1ccc(O)c(Sc2nc3ccccc3s2)c1)c1cccc2ccccc12 |  | inconclusive: 29.1 µM [rising, single point] |
| Cc1ccc(S(=O)(=O)N(C)C)cc1NC(=O)Nc1c(-c2ccccc2)noc1C |  | inconclusive: 6.31 µM [falling, single point] |
| Clc1cc(-c2ccc(/C=N/n3cnnc3)o2)ccc1Br |  | inconclusive: 10 µM [falling, partial curve] |
| CN(C)CCNc1oc(COc2ccc(-c3ccccc3)cc2)nc1C#N | inactive |  |
| COc1ccc(OCCOc2ccc(C)nc2[N+](=O)[O-])cc1 | inconclusive: 1.33% |  |
| Cc1cc(Oc2nc3c(C)cccn3c(=O)c2/C=C(\C#N)S(=O)(=O)c2ccccc2)ccc1Cl | inconclusive: 20.2% |  |
| Cc1cc(C)nc(SCc2nc3ncccn3c2Br)n1 | inactive |  |

| SMILES | activity change, negative = inhibition | Potency |
| --- | --- | --- |
| CCn1nnc2cc(C(=O)Nc3cc(S(C)(=O)=O)ccc3Cl)ccc21 | inconclusive: -0.0846% |  |
| COc1ccc(CCNC(=O)C(=O)NCCCN2CCOCC2)cc1 | inconclusive: -1.69% |  |
| C(=N\Nc1nc(-c2ccccc2)cs1)/c1ccco1 |  | inconclusive: 25.9 µM [falling, partial curve] |
| COc1cc(CNCCO)cc(Cl)c1OCc1ccccc1Cl | inconclusive: -14.9% |  |
| O=c1[nH]c(O)c(/C=C2\C=Nc3ccccc32)[nH]1 | inconclusive: 5.4% |  |
| CCCCn1c(C)cc2c(c1=O)[C@H]1O[C@](CCCCN3C(=O)c4ccccc4C3=O)(Cc3ccccc31)O2 |  | inconclusive: 2.82 µM [rising, single point] |
| O=[N+]([O-])c1ccc2[nH]ncc2c1 | inconclusive: -3.61% |  |
| CC(=O)c1ccc(NC(=O)c2ccc(C)c(Br)c2)cc1 | inconclusive: -9.92% |  |
| O=C(/C=C/c1ccc2c(c1)OCO2)NCCSCc1cccc(Cl)c1 | inconclusive: -1.1% |  |
| Cc1nc(-c2cccc(Cl)c2)n[nH]1 | inconclusive: 7.12% |  |
| CCOC(=O)c1cnc(Nc2nc3ccccc3o2)nc1CSC(=S)N1CCCCC1 |  | inconclusive: 3.26 µM [falling, partial curve, poor fit] |
| CC(C)c1c(C(=O)N/N=C/c2cccc(OCc3ccc(F)cc3)c2)nnn1-c1nonc1N | inconclusive: 7.86% |  |
| Cc1ccc(C(=O)NNC(=O)c2nn(-c3ccc(F)cc3)ccc2=O)cc1 | inconclusive: 7.8% |  |
| OCC1(CC2CCCCO2)CCN(Cc2cccc(O)c2)CC1 (stereo not drawn) | inconclusive: 5.05% |  |
| Cc1ccc(C(=O)NNC(=O)c2ccc(-n3cncn3)c([N+](=O)[O-])c2)cc1 |  | inconclusive: 23.1 µM [falling, single point] |
| CCOC(=O)C1=C(N)Oc2cc(O)ccc2C1c1cccnc1 (stereo not drawn) | inconclusive: -1.85% |  |
| COCCNC(=O)c1ccc2c(c1)nc(C)n2-c1cccc(F)c1 | inconclusive: 8.16% |  |
| CC(NC(=O)CN(c1cccc(C(F)(F)F)c1)S(=O)(=O)c1ccc(Cl)c([N+](=O)[O-])c1)c1ccccc1 (stereo not drawn) | inconclusive: 16.1% |  |
| CCCCCCCCCCOC(=O)C[N+](C)(C)C/C=C(/C)Cl | inconclusive: -8.41% |  |
| Cn1c(=O)n(CCc2ccccc2)c(=O)c2c1nc1n2CCCN1c1ccccc1 | inconclusive: 1.95% |  |
| Fc1cccc(Nc2ncnc3[nH]ncc23)c1 | inconclusive: -11.4% |  |

Gathered by group: the compounds so far with a halogen

| SMILES | activity change, negative = inhibition | Potency |
| --- | --- | --- |
| Cc1ccc(N(C(=O)Cn2nnc(-c3ccc(F)cc3)n2)C(C(=O)NC(C)(C)C)c2ccncc2)cc1 (stereo not drawn) | inactive |  |
| Clc1cc(-c2ccc(/C=N/n3cnnc3)o2)ccc1Br |  | inconclusive: 10 µM [falling, partial curve] |
| Cc1cc(Oc2nc3c(C)cccn3c(=O)c2/C=C(\C#N)S(=O)(=O)c2ccccc2)ccc1Cl | inconclusive: 20.2% |  |
| Cc1cc(C)nc(SCc2nc3ncccn3c2Br)n1 | inactive |  |
| CCn1nnc2cc(C(=O)Nc3cc(S(C)(=O)=O)ccc3Cl)ccc21 | inconclusive: -0.0846% |  |
| COc1cc(CNCCO)cc(Cl)c1OCc1ccccc1Cl | inconclusive: -14.9% |  |
| CC(=O)c1ccc(NC(=O)c2ccc(C)c(Br)c2)cc1 | inconclusive: -9.92% |  |
| O=C(/C=C/c1ccc2c(c1)OCO2)NCCSCc1cccc(Cl)c1 | inconclusive: -1.1% |  |
| Cc1nc(-c2cccc(Cl)c2)n[nH]1 | inconclusive: 7.12% |  |
| CC(C)c1c(C(=O)N/N=C/c2cccc(OCc3ccc(F)cc3)c2)nnn1-c1nonc1N | inconclusive: 7.86% |  |
| Cc1ccc(C(=O)NNC(=O)c2nn(-c3ccc(F)cc3)ccc2=O)cc1 | inconclusive: 7.8% |  |
| COCCNC(=O)c1ccc2c(c1)nc(C)n2-c1cccc(F)c1 | inconclusive: 8.16% |  |
| CC(NC(=O)CN(c1cccc(C(F)(F)F)c1)S(=O)(=O)c1ccc(Cl)c([N+](=O)[O-])c1)c1ccccc1 (stereo not drawn) | inconclusive: 16.1% |  |
| CCCCCCCCCCOC(=O)C[N+](C)(C)C/C=C(/C)Cl | inconclusive: -8.41% |  |
| Fc1cccc(Nc2ncnc3[nH]ncc23)c1 | inconclusive: -11.4% |  |

Rewritten as labelled records: part of the list above.
C(=N\Nc1nc(-c2ccccc2)cs1)/c1ccco1
  Potency: inconclusive: 25.9 µM [falling, partial curve]
COc1cc(CNCCO)cc(Cl)c1OCc1ccccc1Cl
  activity change, negative = inhibition: inconclusive: -14.9%

(more compounds)

| SMILES | activity change, negative = inhibition | Potency |
| --- | --- | --- |
| CC1CCN(C(=O)c2cc3nc(C4CC4)cc(C(F)(F)F)n3n2)CC1 | inconclusive: 7.3% |  |
| C=CCn1c(SCC(=O)Nc2sc(C)c(C)c2C(=O)OCC)nnc1-c1sc(N)nc1C | inconclusive: -7.43% |  |
| Cc1cc(=O)n2[nH]c(-c3cccc(Cl)c3)cc2n1 |  | inconclusive: 35.5 µM [falling, single point] |
| Cc1cc(Nc2cc(C)on2)n2ncnc2n1 | inactive |  |
| Cc1ccc(S(=O)(=O)N(CC2CO2)c2cccc([N+](=O)[O-])c2)cc1 (stereo not drawn) |  | inconclusive: 11.2 µM [falling, partial curve, poor fit] |
| O=C(CSc1nc2nccnc2c(=O)n1Cc1cccs1)Nc1ccccc1 | inconclusive: 3.92% |  |
| COc1ccc(Nc2nc(N)c([N+](=O)[O-])c(NCc3ccccc3)n2)cc1 |  | inconclusive: 12.6 µM [falling, single point] |
| Cc1cc(C)n(-c2ccc(C(=O)OCC(=O)Nc3ccc(Cl)cc3[N+](=O)[O-])cc2)n1 | inconclusive: 19.1% |  |
| Cc1ccc(S(=O)(=O)N(C)C[C@@H]2Oc3ccc(NC(=O)CCC(F)(F)F)cc3CC(=O)N([C@@H](C)CO)C[C@@H]2C)cc1 | inconclusive: -13.3% |  |
| CN(CC(=O)Nc1ccc(Cl)cc1)C(=O)CCc1c[nH]c2ccccc12 | inconclusive: -1.27% |  |
| CCC1=NN(C(=O)c2ccc(Cl)cc2)C(O)(c2ccccc2)C1 (stereo not drawn) |  | inconclusive: 12.6 µM [falling, single point] |
| CN1CCN(CCc2nc3cc(NC(=O)c4ccco4)ccc3n2C)CC1 | inconclusive: 0.194% |  |
| O=c1c2ccccc2oc2nc(C3CCCCC3)n(Cc3ccco3)c(=O)c12 | inconclusive: -6.33% |  |
| COc1cc(/C=C2\C(=N)N3N=C(S(C)(=O)=O)SC3=NC2=O)ccc1OCCOc1ccc(C)cc1 | inconclusive: 2.79% |  |
| COc1ccc(C(=O)Nc2ccccc2-c2nnn(CC(=O)N3CCOCC3)n2)cc1 | inconclusive: 7.52% |  |
| COC(=O)/C(C#N)=C/c1ccc(-c2ccc(S(N)(=O)=O)cc2)o1 | inactive |  |
| O=C1c2ccccc2-c2nc3ccccc3cc21 | inconclusive: -1.79% |  |
| O=C(OCc1cccs1)c1ccccc1NS(=O)(=O)c1ccc2c(c1)OCCO2 | inconclusive: -16.8% |  |
| CN(C)CCNc1ncnc2c1sc1nc(N3CCCC3)c3c(c12)CC(C)(C)OC3 | inactive |  |
| Cc1cccc2nc(-c3cccc(NC(=O)c4ccc(Cl)cc4)c3)cn12 | inactive |  |
| CN(Cc1ccccc1)C(=O)c1ccc(NC(=O)C2CCN(C(=O)OC(C)(C)C)CC2)cc1 | inactive |  |

| SMILES | activity change, negative = inhibition | Potency |
| --- | --- | --- |
| NS(=O)(=O)c1ccc(NC(=S)NCc2ccc(Cl)cc2)cc1 | inconclusive: -6.28% |  |
| Cc1cccc(NC(=O)C2C3C=CC(C4CC34)C2C(=O)O)c1 (stereo not drawn) | inconclusive: 23.5% |  |
| Cc1cc(C)cc(N(C(=O)c2ccc3c(c2)OCO3)C2C=CS(=O)(=O)C2)c1 (stereo not drawn) | inconclusive: -7.04% |  |
| CCOC(=O)C1CCN(C(=O)COc2ccc(Br)cc2C)CC1 |  | inconclusive: 35.5 µM [rising, single point] |
| O=C(OCC(=O)c1cccs1)C1=COCCO1 | inconclusive: 16.9% |  |
| CCOC(=O)c1ccc(N=C2NC(=O)CS2)cc1 | inconclusive: 0.559% |  |
| COc1cccc2sc3cc(C#CC4(O)CCCCC4)ccc3c(=O)c12 | inconclusive: 9.18% |  |
| O=C(O)c1ccc(S(=O)(=O)N2CCC(NC(=O)C3CCCCC3)CC2)cc1 | inactive |  |
| Cc1cc(C(=O)Cn2ncc(Cl)c(Cl)c2=O)c(C)n1CC(F)(F)F | inconclusive: 5.25% |  |
| Cc1ccsc1/C=N/NC(=O)c1c[nH]c2ccccc12 |  | inconclusive: 28.2 µM [falling, single point] |
| CC(NC(=O)c1ccc(Cl)s1)C1CCCO1 (stereo not drawn) | inconclusive: 11.8% |  |
| CC(=O)c1cccc(OCc2cc(C(=O)NCCC3=CCCCC3)no2)c1 | inactive |  |
| Cc1ccc2oc(-c3cc(NC(=O)c4ncn[nH]4)ccc3O)nc2c1 | inactive |  |
| Cc1ccccc1C(=O)N=c1sccn1C | inactive |  |
| O=C(/C=C/c1ccco1)NCCc1ccc(F)cc1 |  | inconclusive: 28.2 µM [falling, partial curve] |
| Oc1ccc(Nc2ncnc3c2oc2ccccc23)cc1 |  | inconclusive: 35.5 µM [falling, single point] |
| O=C(CSc1nnc(Cc2cccs2)n1-c1ccccc1)NC1CCCCC1 | inconclusive: -1.35% |  |
| Cc1ccc(-c2nc(CS(=O)CC(=O)NCCC(C)C)c(C)o2)cc1 (stereo not drawn) | inconclusive: -1.81% |  |
| COC(=O)c1sc(S(=O)(=O)Nc2ccc(C)cc2)c(C(=O)OC)c1C | inactive |  |
| Cc1cc(C)c2c(n1)SCC(=O)N2CC(=O)Nc1ccc(F)cc1 |  | inconclusive: 8.91 µM [falling, partial curve, poor fit] |
